Experimental data reported in article PMC7819943, “Rice protein-binding microarrays: a tool to detect cis-acting elements near promoter regions in rice”.
This is one part of the list.

Each sequence was assayed against T1, OsSMF1 (Oryza sativa, UniProt Q6ZLB0 1-436) (assay: protein-binding microarray (RPBM); PBS, 2% BSA, 51.3 ng/ul salmon testes DNA, 50 uM zinc acetate, 200 nM TF, 25 C, 1 h; high values mean tight binding). Conditions: protein: recombinant; tags: N-terminal polyhistidine and DsRed monomer fusion (pET32a); chain copies: 2; label: CyDye5-dUTP incorporated in the synthesized complementary strand; 3' TTTTT single-stranded linker to array surface; dsDNA, one strand shown.
T1 sequence: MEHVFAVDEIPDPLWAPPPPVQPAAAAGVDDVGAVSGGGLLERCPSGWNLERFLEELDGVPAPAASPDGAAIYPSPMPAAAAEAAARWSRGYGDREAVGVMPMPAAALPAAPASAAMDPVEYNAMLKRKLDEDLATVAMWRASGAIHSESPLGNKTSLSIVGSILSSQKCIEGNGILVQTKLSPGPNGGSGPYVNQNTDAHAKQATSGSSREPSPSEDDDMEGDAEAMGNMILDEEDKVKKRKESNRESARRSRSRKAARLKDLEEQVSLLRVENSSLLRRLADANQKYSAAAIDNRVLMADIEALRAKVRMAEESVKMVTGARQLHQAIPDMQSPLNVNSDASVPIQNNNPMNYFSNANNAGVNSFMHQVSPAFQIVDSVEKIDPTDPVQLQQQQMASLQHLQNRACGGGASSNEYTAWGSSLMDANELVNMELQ
In short: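 Binding signal is defined as the fluorescence intensity of each feature in arbitrary units, read on an Axon 4000B scanner. Transcription factors with N-terminal polyhistidine and DsRed fusions came from E. coli BL21-CodonPlus and were purified on Ni–NTA. They were incubated at 200 nM for 1 h at 25 °C on a custom Agilent array that had been made double-stranded with Cy5-dUTP, with 50 µM zinc acetate present, and the array was washed.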

Sequence | binding signal
CGCATCTTGCAGAGGACACACGTGCCTCATCAGGGGATTACGGAGTCACCTAGTGCAG | 3960 fluorescence intensity (a.u.)
TGCGGACTCCCTCGAGGTCCATCCTGTTTGATATCAGCTCCGGAGTCACCTAGTGCAG | 4120 fluorescence intensity (a.u.)
AGCCAGAATGTACCGTTGGTACCACGTACTGATCCTATCCCGGAGTCACCTAGTGCAG | 7420 fluorescence intensity (a.u.)
TGAGCAGGACCTTGTCCTGCGCCACGTGGAAGAGCGCTCCCGGAGTCACCTAGTGCAG | 12000 fluorescence intensity (a.u.)
GTGAGTGTGGTGTGTGCACGCCTGATCCTATACTCGAAATCGGAGTCACCTAGTGCAG | 3430 fluorescence intensity (a.u.)
TTCAGCCCGTGACACTGATGTATTTGTAGTGTTGTGAGCCCGGAGTCACCTAGTGCAG | 3520 fluorescence intensity (a.u.)
ATAGCCCTATACTCACTGACATGTGGACCCCACTTAAATACGGAGTCACCTAGTGCAG | 3360 fluorescence intensity (a.u.)
CCGCACAGAGCACACGCCTCCCCGCACGCCACCGTGACGACGGAGTCACCTAGTGCAG | 18700 fluorescence intensity (a.u.)
TTAGCTGTGTGTGTTCTTACGCTTGGGTTGGCGATTGAATCGGAGTCACCTAGTGCAG | 3830 fluorescence intensity (a.u.)
CCACACACGGCCGTCGCTGACTCACCGATGCACCATCGCCCGGAGTCACCTAGTGCAG | 17500 fluorescence intensity (a.u.)
GATTCACAACGATTGCTCTGTTTTGCGTGACACAAGGGCTCGGAGTCACCTAGTGCAG | 7400 fluorescence intensity (a.u.)
TTCTAAGAAATCTATATATAGATTTATTATTATTATTTTGCGGAGTCACCTAGTGCAG | 8080 fluorescence intensity (a.u.)
TATCTAAATGACATGACTCACTTAGATCCTAATAGGACATCGGAGTCACCTAGTGCAG | 3370 fluorescence intensity (a.u.)
GCCCCGCGGCTTCCGGCTGCCGTCGCCGCGAGCCCCGTGGCGGAGTCACCTAGTGCAG | 5050 fluorescence intensity (a.u.)
CACCCGATCCACGTGCCTCGTGGGGTTGGTTTGGTTTGGACGGAGTCACCTAGTGCAG | 5250 fluorescence intensity (a.u.)
CATCATCCGCGCGCGTGTGGACCAGGACGCGCGGGCGGGGCGGAGTCACCTAGTGCAG | 3710 fluorescence intensity (a.u.)
GAGGAGATGACCGTAGCAGTAGTAATGCAAGGCTGGAACGCGGAGTCACCTAGTGCAG | 3660 fluorescence intensity (a.u.)
TATATATTTATAACTCTAACATAGACACACATATATAATTCGGAGTCACCTAGTGCAG | 7580 fluorescence intensity (a.u.)
ACATACAGCGTGGCACGAGGATATGCCCCTGCATCCGGTGCGGAGTCACCTAGTGCAG | 5680 fluorescence intensity (a.u.)
AGAATAATCTTTGGGCTGCATAACCTGGAACTCATTTCGTCGGAGTCACCTAGTGCAG | 33400 fluorescence intensity (a.u.)
GTTCTCTCCCCGTGGTCCCGAGTCCCGACGGCTGCTGCCACGGAGTCACCTAGTGCAG | 3230 fluorescence intensity (a.u.)

Two neighbouring records already listed, for reference:
Sequence | binding signal
TATCTAAATGACATGACTCACTTAGATCCTAATAGGACATCGGAGTCACCTAGTGCAG | 3370 fluorescence intensity (a.u.)
GCCCCGCGGCTTCCGGCTGCCGTCGCCGCGAGCCCCGTGGCGGAGTCACCTAGTGCAG | 5050 fluorescence intensity (a.u.)

More entries.

Sequence | binding signal
ATCCGACGGCGCCCCGCCCCTCCACGTCGCCGTCGTCTTCCGGAGTCACCTAGTGCAG | 6920 fluorescence intensity (a.u.)
CGCGAGGGCGTGGTGGTGGTGGTGGTCGTCATCATCGACGCGGAGTCACCTAGTGCAG | 4150 fluorescence intensity (a.u.)
GAATTGAGCTGAGTGCCACGTCAGTTGAAACCGCCGTCCACGGAGTCACCTAGTGCAG | 11800 fluorescence intensity (a.u.)
AAACGCTACTACCCCTCCGCCACAGCGTCCACACCCGCGCCGGAGTCACCTAGTGCAG | 25600 fluorescence intensity (a.u.)
AAACGGAAAACAAAAGTTAATTCCTCAGTAACTCTCCACCCGGAGTCACCTAGTGCAG | 3500 fluorescence intensity (a.u.)
CAATATATTTATTGTATATGTATCTTTAGAAGCTGATTCACGGAGTCACCTAGTGCAG | 4160 fluorescence intensity (a.u.)
GCGTTTCTTGGACGTGAGGTGGATGAGGCTCGCCACCGGCCGGAGTCACCTAGTGCAG | 4030 fluorescence intensity (a.u.)
GGGGACGCAGGAGGAGGTGGGTGGGTCGAGCTCGCTTGCGCGGAGTCACCTAGTGCAG | 3300 fluorescence intensity (a.u.)
TGGTGTTTGTTTTGTACCGCCACCTCAGGAATCAAAGCCCCGGAGTCACCTAGTGCAG | 6630 fluorescence intensity (a.u.)
AGTGAAGACACTCGCCAAGAATCTCAAGGAAAATACCAGTCGGAGTCACCTAGTGCAG | 3430 fluorescence intensity (a.u.)
TCGTCGACTACGTGTTGGTGTTTCATGCCGCCAAGTCGACCGGAGTCACCTAGTGCAG | 5250 fluorescence intensity (a.u.)
AGCCTCTTCCCGCGGTCCCGCCCAGTTCGTTGGCGTGTACCGGAGTCACCTAGTGCAG | 10600 fluorescence intensity (a.u.)
ATCAGAACCGCCACTCAAGTTTCAGTAGTTTGGTCTTGTACGGAGTCACCTAGTGCAG | 3790 fluorescence intensity (a.u.)
ACTGTAGCATGACTAAAGTGTGACATGGCAAAATGTGGCACGGAGTCACCTAGTGCAG | 13300 fluorescence intensity (a.u.)
GTACTACAGTACGATATTGCACGAGAGAATTCCACGTCAGCGGAGTCACCTAGTGCAG | 26900 fluorescence intensity (a.u.)
CGGGCACGTGCCACGACGACGCCCTATCCACCACACTATCCGGAGTCACCTAGTGCAG | 5810 fluorescence intensity (a.u.)
TAATTAGTATACTATGACATCAGTAGATATATTATGACACCGGAGTCACCTAGTGCAG | 3780 fluorescence intensity (a.u.)
AACCCTGTCCACGTCTGCTCGTCGCCATGGCCTCTCGTTCCGGAGTCACCTAGTGCAG | 9150 fluorescence intensity (a.u.)
TACGATGCACGTCATGTTATCCCGACATCATGTGGTTGATCGGAGTCACCTAGTGCAG | 7800 fluorescence intensity (a.u.)
AGGCCGGCGACGAACCTCGATCTCGATCCGCTCGCCGCCGCGGAGTCACCTAGTGCAG | 5070 fluorescence intensity (a.u.)
CCCCGCGCGCGACACGTGTACAGTCGCACGCAGGAGGGTGCGGAGTCACCTAGTGCAG | 13000 fluorescence intensity (a.u.)
